PMC10462637
No constants are given. Whether binding was seen depends on the method and setting. Binding seen in cells or lysates may run through a third protein. Some binding calls cover weakened binding; strength is not graded here.

By UniProt entry, the sequences of proteins in these tests, tags left out.
UniProt Q68E01: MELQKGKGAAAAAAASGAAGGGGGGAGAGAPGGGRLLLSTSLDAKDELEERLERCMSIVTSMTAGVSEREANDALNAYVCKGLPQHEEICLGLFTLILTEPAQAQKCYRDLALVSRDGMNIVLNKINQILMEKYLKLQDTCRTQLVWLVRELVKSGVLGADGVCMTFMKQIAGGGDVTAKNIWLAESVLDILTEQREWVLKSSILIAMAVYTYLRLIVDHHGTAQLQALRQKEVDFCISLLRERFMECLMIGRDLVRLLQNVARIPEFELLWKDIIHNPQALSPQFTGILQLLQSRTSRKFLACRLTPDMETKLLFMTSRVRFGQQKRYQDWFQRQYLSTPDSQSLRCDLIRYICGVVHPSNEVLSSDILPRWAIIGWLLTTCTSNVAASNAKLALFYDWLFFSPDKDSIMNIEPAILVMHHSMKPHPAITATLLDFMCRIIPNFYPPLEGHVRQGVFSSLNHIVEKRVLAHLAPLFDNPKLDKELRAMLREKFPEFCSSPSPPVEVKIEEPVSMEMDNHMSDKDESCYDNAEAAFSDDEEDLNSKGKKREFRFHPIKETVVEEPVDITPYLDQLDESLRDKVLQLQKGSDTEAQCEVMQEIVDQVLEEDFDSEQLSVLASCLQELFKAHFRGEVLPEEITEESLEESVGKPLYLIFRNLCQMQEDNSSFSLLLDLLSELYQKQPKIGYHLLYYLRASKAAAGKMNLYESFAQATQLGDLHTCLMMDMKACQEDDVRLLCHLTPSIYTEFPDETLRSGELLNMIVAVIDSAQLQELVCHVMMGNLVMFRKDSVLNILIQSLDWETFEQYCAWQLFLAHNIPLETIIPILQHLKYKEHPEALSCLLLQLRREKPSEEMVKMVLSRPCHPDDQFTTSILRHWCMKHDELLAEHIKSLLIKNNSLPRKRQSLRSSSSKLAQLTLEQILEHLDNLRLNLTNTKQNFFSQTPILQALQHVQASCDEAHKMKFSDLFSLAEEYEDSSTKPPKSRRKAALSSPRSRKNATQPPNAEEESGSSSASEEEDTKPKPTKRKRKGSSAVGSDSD
UniProt Q96AH0: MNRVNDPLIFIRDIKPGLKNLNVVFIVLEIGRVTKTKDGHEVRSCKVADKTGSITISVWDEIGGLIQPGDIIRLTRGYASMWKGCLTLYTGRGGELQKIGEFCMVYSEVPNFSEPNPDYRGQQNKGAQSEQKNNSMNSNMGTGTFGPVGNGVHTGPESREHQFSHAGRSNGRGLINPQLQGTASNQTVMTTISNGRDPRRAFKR

Target: SFB-SOSSA (UniProt Q68E01)
Assay: co-IP; 293T cells co-transfected for 24 h, lysed and sonicated in NETN buffer (0.5% NP-40, 20 mM Tris-HCl pH 8.0, 0.1 mM NaCl, 1 mM EDTA, protease inhibitor); supernatant incubated with S protein beads for 4 h, washed with NETN; Western blotting

binding: binds
Substance: SOSSB2 (wild type, full length) (from UniProt Q96AH0 1-204)
